Test results: PubChem BioAssay AID1508600 (Functional Genomics Laboratory (NCATS/FGL), 2020)
Screen size: about 53,000 sequences; about 3,700 (7%) were called active.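 The calls were made as follows: active = gene knockdowns whose robust z-score for IL-1 alpha signal is at least 2 or at most -2, so actives lie on both sides; inactive = the rest.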 The list shows a part of the results.

Assay: Components of the Cytosolic LPS Sensing Pathway: Gene Identification via Genome-wide siRNA Screen;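 also: robust z of the log signal after scaling to non-targeting control siRNA wells of the plate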
Conditions: RAW264.7 macrophages, IL-1a HTRF, actives lie on both sides, screened at 100 nM (by protocol), cells primed 5 h with Pam3CSK4 first
Outline: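 RAW264.7; siRNA 100 nM final, RNAiMAX, 48h 37 degrees C; Pam3CSK4 5 h; LipidA + TransIT-TKO 24 h; IL-1a HTRF; CellTiter-Glo viability; robust z vs negative-control median.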

Row | Sequence | z-score
1 | CGAAUGAAGCUGACAUUGGTT against Ssx9 | inactive: 0.0231
2 | CCGCUACCAACAGAGCAAATT against Trim9 | inactive: 0.636
3 | GCUUGGUUGGAUCCUGAUUTT against Polr2g | inactive: -1.77
4 | GGCAGAUGUAUGAAAUCUUTT against Fancc | inactive: -0.196
5 | GCACAUCAACAUUGAUACUTT against Atp11c | inactive: -0.0521
6 | GGUGAAACCCUGAAAGUCCTT against Tmem154 | inactive: -0.169
7 | UAAAAUAUGCGAGCUCGCGTT against Adam26b | inactive: 1.35
8 | GAAGUGAAGAAAGUCAUCATT against Olfr1506 | inactive: 0.128
9 | GCAGCAACAUUCUUUGGAUTT against Adk | inactive: 0.986
10 | CCGGACCUCUGCGCAAUUUTT against Npb | inactive: 0.289
11 | GCCAAAUAUUAUUCCUACATT against Sec63 | inactive: -0.282
12 | GCUGCACUUGAAAUCCGAGTT against Atg2b | inactive: 1.49
13 | GGUAGCUUAGAGGACUAACTT against Cidec | inactive: -1.78
14 | GGAUCCAAGGUGAAAAUAUTT against Fam131a | active: -2.25
15 | CGACUGUCGUUUGUUGAUGTT against Tktl2 | inactive: -0.766
16 | GCUGUAAUUCCUAAGUUAUTT against Ubxn6 | inactive: 0.268
17 | GGUUUCUGUUUUGUCACACTT against Slc22a13b | inactive: -0.535
18 | GCUAUGUGGGUUGUGCUAUTT against Olfr1361 | inactive: 0.734
19 | GGGCUAUGCAGACCUGUACTT against Cyb561 | active: -2.45
20 | GCAUGUGCUAUAAUGAUCATT against Gm5444 | inactive: 0.256
21 | GGAUGAAUAUGGUGUUUCUTT against Rnf138 | active: -2.23
22 | CCUGGGUCAAACAAAAAAGTT against Bfar | inactive: -0.531

Fetched one by one from above:
Row | Sequence | z-score
14 | GGAUCCAAGGUGAAAAUAUTT against Fam131a | active: -2.25
7 | UAAAAUAUGCGAGCUCGCGTT against Adam26b | inactive: 1.35

(list continues)

Row | Sequence | z-score
23 | GGAUUUUGUUCCUCAAGAUTT against Pip4k2a | inactive: -0.737
24 | GGUUCAUAGGCAACUUUCUTT against Olfr1294 | inactive: -1.94
25 | UACAGGGUUAGCUCAUCACTT against Gm10439 | inactive: -0.544
26 | GGCGUAGUACUUCUAAUACTT against Rab12 | inactive: -0.806
27 | GGAAGCUUACUUUUCUCUATT against Rprd1a | inactive: 0.71
28 | GGUCAUCGCUCAGUUAGAATT against Zfp879 | inactive: 0.33
29 | GGCAGCCUUAUCCACGUGATT against Ces2c | inactive: 0.958
30 | GGAGAUACUGAGUACAUUCTT against Cd38 | inactive: 0.115
31 | GCCGAGUUAAGUUGACUUUTT against Ptpn12 | inactive: -0.0187
32 | GCUAAACCCAAAAACACAATT against Sim2 | inactive: 1.04
33 | CCAACCACAGGAUCAGAUGTT against Prrg4 | inactive: 0.556
34 | GGAAAUGUAGUGAAGGGUGTT against Ndfip2 | active: 2.03
35 | GCAGCAUUUAGCUAGACAGTT against Agtr1b | inactive: 0.934
36 | GGACUCUUUUAUGAGUUUGTT against Lims1 | inactive: 0.757
37 | CCAUACAAUAAGAGUGCUATT against Clec4a4 | inactive: 0.936
38 | GCAUGUCGCCUUGAAAUUATT against Cpne4 | inactive: 0.202
39 | GGAAGACCAUGUUUUAAAATT against Tm4sf20 | inactive: 0.521
40 | CCCACAAAUUAAAGUCCGCTT against Cldn16 | inactive: 0.926
41 | GCUUUAAUGCCUAUUGCAATT against Apol7c | inactive: 0.641
42 | GGAAGACUACAUAAGAGACTT against Cxcl9 | inactive: 0.103
43 | GGGCACUGACAAACGUAUUTT against Olfr433 | inactive: -0.34
44 | CCAAGACUCUUUAUUCAACTT against Rasip1 | inactive: 0.774

Row | Sequence | z-score
45 | GGAGUUGGUUUGUAUCAAATT against Fgf15 | inactive: 0.261
46 | CCCAGCACUUUUUCGCUCUTT against Olfr458 | inactive: 0.959
47 | GGAACUCAAAGUCAAGGUUTT against Cryab | inactive: -1.28
48 | CGGGUUCAACUAAAUUCAGTT against Dnajc5 | inactive: 0.279
49 | GCAUGCGCGCUACACUCUATT against Adamts5 | inactive: -0.622
50 | GGACUCCUACAUGAUUGCUTT against Slc52a2 | inactive: -0.362
51 | GGUCAUCAGAAGAAUCAAGTT against Arr3 | active: 2.13
52 | GGAGUCCUUCUUUCACUGGTT against Pepd | inactive: -0.223
53 | CCUUCACAAGCAAUAAGUCTT against Acot7 | inactive: -0.478
54 | GCGAUCAGCAAGCUAAGCCTT against Mettl2 | inactive: 0.117
55 | GGAACAUAUUAUCUCGGAGTT against Cit | inactive: 0.0964
56 | GGCGCGGCUGAAAUUUGAATT against Casc1 | inactive: 0.372
57 | CCUCUCAUGUGUGCCUAUATT against Pitpnm1 | inactive: -0.0699
58 | CCAUUUAUUUGGACUUGUATT against Lig4 | inactive: 0.303
59 | GGCUUCAUUCGUAGGCCAUTT against Smcr8 | inactive: 1.64
60 | GGAGCACAAGAAGGAUAAGTT against Top1 | inactive: -0.4
61 | GAGCAGCUCUUUAGCCAGGTT against Josd2 | inactive: 0.582
62 | GGUCAUGAGUAUUUUGACUTT against Klhl24 | inactive: -0.277
63 | GGUACUCGGUUAUCAUGAATT against Olfr418 | inactive: -0.457
64 | GGGCGUGGUCAACUUCAAATT against Man1c1 | inactive: 0.129
65 | GGUGGUAGAUGCGGAUGUGTT against Kif3b | inactive: -0.822
66 | CCUGAGUCCACUGAUGAAGTT against Gm9918 | inactive: -1.83

Row | Sequence | z-score
67 | CCUAAAGGGUUUAUAUGCATT against Slc26a3 | inactive: 0.287
68 | GGGAAUUCUUUGUUAAUGATT against Ceacam9 | inactive: -0.879
69 | GGGACAAAAACACAUGUACTT against Kif5c | inactive: 0.773
70 | CCAUGCAAGAAUUAAAGCCTT against Anxa11 | inactive: -0.107
71 | GCUUCCAUAUCUUUCAUAGTT against Olfr987 | inactive: -1.2
72 | GGACUUGUUCUUGUACAGCTT against Dop1b | inactive: 1.3
73 | GCUGACAAAGUGGUUUCUUTT against Olfr733 | inactive: -0.416
74 | CCACCAUCAAAUAUAACUATT against 9930021J03Rik | inactive: 0.708
75 | GGUGCUGACAUCCUCUUUUTT against Chd9 | inactive: 0.149
76 | GGGCAACUAUAGAAUAGUGTT against Asb2 | inactive: 1.6
77 | CGACCUCAAAGAUGUGACGTT against Septin5 | inactive: -0.902
78 | GGAACACAAACUGAGCCUGTT against Fam20c | inactive: -0.0655
79 | GGGUGUUCGUUAGUCCUCUTT against Dlat | inactive: -1.4
80 | GCUGAUCAUCCGUUUCACUTT against Hdc | inactive: -0.227
81 | GGGUUCUUUUAGGUUGUCATT against Ccdc85a | inactive: -0.123
82 | GCCCAGGCAAAAUAAGGAGTT against Itpkc | inactive: -0.166
83 | GGAGCAUUAUGCUUUGUGGTT against Mgat1 | inactive: -0.613
84 | GCCAAAUAUUGCUUUGUUGTT against Gadd45a | inactive: -0.157
85 | GCCAAGAGGACAUUUGGCATT against Kif24 | inactive: 0.251
86 | CCUAAGAACCCUGAUCCUATT against A030005L19Rik | inactive: 1.08
87 | GGAGAUGCUAGAAAUUGUGTT against Hpca | inactive: -0.909
88 | CCCUCAAGAAUAUUUAACCTT against Smarcc1 | inactive: -0.399

An excerpt of these results, as a markdown table:

| Row | Sequence | z-score |
| --- | --- | --- |
| 72 | GGACUUGUUCUUGUACAGCTT against Dop1b | inactive: 1.3 |
| 73 | GCUGACAAAGUGGUUUCUUTT against Olfr733 | inactive: -0.416 |

Further records follow.

Row | Sequence | z-score
89 | GGCCAGAGAGUCAAGGUUATT against Gm5084 | inactive: -0.292
90 | GGACAAUGACCAGAAUAGCTT against Them7 | inactive: -0.577
91 | GCUUGUGCUGAAUUACACCTT against Vps35 | active: 2.11
92 | GGAAGGAGAAAAACAUAAATT against Hnrnpm | inactive: -0.869
93 | CGUAAGAAGUGGAUGAACATT against Zc3h7a | inactive: -1.88
94 | GGAAACAGAAUGGAGUAAUTT against Rev1 | inactive: -1.2
95 | GGUUUAAAAUAGGUUUGGATT against AI597479 | inactive: 0.436
96 | GGACUUUGGUUUUUGUAAGTT against Vasn | inactive: -1.72
97 | GGAGUUUGGAACAAGAGAUTT against Prkcsh | inactive: -1.79
98 | GGACUCAUUGUCUUUAACATT against Amy1 | inactive: 1.88
99 | GCUUAAUGAAUCAUCGGUUTT against Itga3 | inactive: 1.41
100 | CCAUAUUGGCAAUCUCUAGTT against Khdc1a | active: 2.15
101 | GCCUCCACAUAGCUUCAACTT against Angel1 | inactive: -0.954
102 | GCCGUACGAAAAAUAAGCATT against Rps7 | inactive: -0.402
103 | GCCACUCACCUAGCAAAGATT against Fbrsl1 | inactive: -1.36
104 | GGCCGUUCAUUUCCUCAUCTT against Galr2 | inactive: -0.359
105 | GGUUGUUCGUAGUCUUCCUTT against Slc5a9 | inactive: -0.559
106 | CGGGAUGUCAAAGUGUCAUTT against Tmem14a | inactive: -0.438
107 | GGCCAAAAGAACAAGGUUCTT against Obsl1 | inactive: 1.49
